Test results reported in paper PMC9917868.
No constants are given. Whether binding was seen depends on the method and setting. In cells and extracts the contact can be indirect. Binding calls can cover weak binding; strength is not graded here.

Molecular target: T1, proNRG2, endogenous in mouse whole brain (mouse (endogenous in whole brain)) (UniProt P56974)
T1 sequence: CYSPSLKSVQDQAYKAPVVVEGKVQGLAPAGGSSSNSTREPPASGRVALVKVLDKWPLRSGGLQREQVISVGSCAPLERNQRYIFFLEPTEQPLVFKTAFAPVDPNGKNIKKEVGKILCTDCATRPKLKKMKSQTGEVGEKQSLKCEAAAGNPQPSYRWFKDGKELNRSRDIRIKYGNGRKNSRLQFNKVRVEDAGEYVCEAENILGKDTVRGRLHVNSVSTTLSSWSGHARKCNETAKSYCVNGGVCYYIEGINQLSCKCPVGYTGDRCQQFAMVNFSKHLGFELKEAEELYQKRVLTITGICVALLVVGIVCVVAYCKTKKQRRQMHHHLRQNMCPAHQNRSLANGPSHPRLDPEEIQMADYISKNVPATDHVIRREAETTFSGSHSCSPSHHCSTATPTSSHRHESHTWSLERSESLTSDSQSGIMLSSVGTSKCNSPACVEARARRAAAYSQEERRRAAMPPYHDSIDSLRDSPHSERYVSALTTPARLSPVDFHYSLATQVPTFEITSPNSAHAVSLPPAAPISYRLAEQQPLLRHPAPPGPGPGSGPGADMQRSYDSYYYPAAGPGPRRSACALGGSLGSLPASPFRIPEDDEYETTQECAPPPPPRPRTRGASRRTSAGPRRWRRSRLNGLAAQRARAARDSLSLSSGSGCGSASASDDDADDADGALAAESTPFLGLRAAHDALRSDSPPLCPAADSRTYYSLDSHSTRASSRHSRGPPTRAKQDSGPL
Assay: co-IP; IP with a rabbit polyclonal antibody against the NRG2 extracellular domain (ABN1654) from mouse whole brain lysates; control normal rabbit IgG; Western blot

For VAP, endogenous in mouse whole brain, the binding was “binds”.
